Results taken from PubChem BioAssay AID1508600 (Functional Genomics Laboratory (NCATS/FGL), 2020).
Hit rate of the full screen: of about 53,000 sequences, about 3,700 (7%) were called active.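 Rule for the calls: active = gene knockdowns whose robust z-score for IL-1 alpha signal is at least 2 or at most -2, so actives lie on both sides; inactive = the rest.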 This is one part of the list.

assay: Components of the Cytosolic LPS Sensing Pathway: Gene Identification via Genome-wide siRNA Screen; conditions: RAW264.7 macrophages, IL-1a HTRF, actives lie on both sides, screened at 100 nM (by protocol), cells primed 5 h with Pam3CSK4 first;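 note: robust z of the log signal after scaling to non-targeting control siRNA wells of the plate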
How it was run: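 Mouse macrophage line RAW264.7 is transfected with siRNA (100 nM final), grown 48h, primed with TLR ligand Pam3CSK4 5 h and given intracellular LipidA 24 h. IL-1a in supernatant is read by HTRF and viability by luminescence.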

| Sequence | z-score |
| --- | --- |
| GCGUAUUCAGCUGGGAUAGTT against Marveld2 | active: -2.42 |
| GGACCACAUUCCCUUUUUUTT against Serinc5 | inactive: 0.762 |
| GGUGUGGUGGACUAAAUAUTT against Zfp932 | inactive: -0.987 |
| GGACUCUCAUUGAGGAACUTT against Znhit2 | inactive: -0.206 |
| GGAUGACAGAGAUCUCACATT against Gsx1 | inactive: -0.753 |
| GGAUCUGGAGAAGAUGAUGTT against Ret | inactive: -0.822 |
| GGAAAUCCAAGAACUUAAUTT against Fgfr1op2 | inactive: 0.148 |
| GGAUUUACGACCUAACCAUTT against Naxd | inactive: 0.357 |
| GGCAAAAUGAAUGAGGAAATT against Ces1c | inactive: 1.01 |
| CCUUUGGUUUCCAGUGAGUTT against H2-M10.6 | inactive: 0.204 |
| GGCUUGAAGAUGUCUAUGATT against Aptx | active: -2.19 |
| CCUUUGACUAAUCGUUUUGTT against Tpp1 | inactive: 0.762 |
| GGAGAACCAAAACAGCGAATT against Hoxa2 | inactive: -0.508 |
| CCUUUAGAGAAAAGUUCUATT against Pja2 | inactive: 0.369 |
| GCUGUCCUUUUGAAAGAUATT against Rgs8 | inactive: 0.933 |
| GGUUCUGUCCAAUGUCUGATT against Oas1f | inactive: 1.92 |
| ACUAUGUGCGAAACUCGCGTT against Lhfpl5 | inactive: 0.526 |
| GGCCAUUCCUCAACAACAUTT against Mpzl3 | inactive: -1.02 |
| GGCCUCAAUGCAGUAUCAATT against Shisal2b | inactive: 0.773 |
| GGACCUGGAAUUCGUCUGATT against Socs3 | inactive: 0.938 |
| GCAGUUUUAACUGGCCAUATT against Nr2f2 | inactive: 1.7 |
| CCUUCUUAUAGGUUAACUGTT against Pde10a | inactive: 1.49 |

Two entries from above, set out differently.
Sequence | z-score
GGACCUGGAAUUCGUCUGATT against Socs3 | inactive: 0.938
GCAGUUUUAACUGGCCAUATT against Nr2f2 | inactive: 1.7

Further results:

| Sequence | z-score |
| --- | --- |
| GGAGUUCAAGGCCAAGGAATT against Atp6v1g1 | inactive: -0.935 |
| CCACUGCUUACUUCCUGUATT against Cd74 | inactive: -0.38 |
| GGAGGAUGGGCAAGAAUAUTT against Eif1ax | inactive: 1.39 |
| GCUUGACUUGUUUUUGGCATT against Nfib | inactive: 0.893 |
| GCUUCGAGAGUUCAACAUCTT against Zmynd19 | inactive: -0.144 |
| CGAAUCAUGUGUUUGCACATT against Camkk2 | inactive: 1.21 |
| GCUGAACGGUCUCAAACAGTT against Cdca3 | inactive: 0.395 |
| GGUCCUAGGUACAAUCACUTT against Slfn10-ps | active: -2.58 |
| GGAAAGACACAAGUGGAAATT against Nav2 | inactive: 0.061 |
| GGCUACCGAGACAAUGCUUTT against Pcmtd1 | inactive: 0.232 |
| GGACAGCAGCAACAACAUCTT against Dnase1l3 | active: -2.04 |
| GAGGGAUAUGUGAAGCCUCTT against Mospd3 | inactive: -0.806 |
| CGUGGAAGACAUACAACCCTT against Tmem181a | active: 3.03 |
| GGACUCCUAUGUGGGUGACTT against Actb | inactive: 0.138 |
| GGAUGACUCACAGAAUUUGTT against Olfr167 | inactive: -0.572 |
| GGAGAUGCUCAUUUUGAUUTT against Mmp8 | inactive: 1.76 |
| GGUGGCUAGCCAGACAAAATT against Rnf151 | inactive: 1.22 |
| GCUUAAACCGCCUAUGUUCTT against Spcs1 | inactive: 0.782 |
| GGAAAGAAUCACAAGGAAATT against Wbp4 | inactive: 1.14 |
| GGAGCGACAACUGUGAUAUTT against Liph | inactive: -0.717 |
| GGCAAAGAAUGCACUUUCUTT against Elapor2 | inactive: -0.536 |
| AGGUUUUUAGCCUGAGUGATT against Olfr688 | inactive: 0.602 |

| Sequence | z-score |
| --- | --- |
| GGAAUAAGUAGUGAUAGAGTT against Il5ra | inactive: -0.0143 |
| GGCUUGACUGAAUAAUAAUTT against Gpr157 | inactive: -0.424 |
| GCCCAAGUUUCGGUCUCCATT against Map4k1 | inactive: -0.0375 |
| GAGCAGCUGAUCACUGGAATT against Tuba3a | inactive: 1.49 |
| GCAGUCCAUCAAUAUUAUGTT against 9530077C05Rik | inactive: 0.817 |
| GCAGUAUUGAUAAAAGUACTT against Fam171b | inactive: 0.242 |
| GGAAACACAUCAUUUGAUGTT against Tmem131 | inactive: -0.56 |
| CCAAGAGGAUUUUCUCUUUTT against Krtap6-1 | inactive: -0.0495 |
| GGACAACUUCACCUUGAUUTT against Dpysl2 | inactive: 0.643 |
| GGAACUCAGUCAGGACCAATT against Hnf4aos | inactive: 0.954 |
| GGUUCUAGACAAUUACCUGTT against Clic1 | active: 2.43 |
| GGAUCAUUUACAUUCAUACTT against Alg12 | active: -2.6 |
| GCCCACGUAUUUGUCUGCUTT against Sprn | active: -2.58 |
| GGUUGUGCAUUGUUUAUUGTT against Ppfibp1 | inactive: -0.788 |
| GCUGAUCUUUUUCAACAUGTT against Tas2r102 | inactive: 1.02 |
| GGCAUACAAAGCCCUCUAUTT against Kcnrg | inactive: -0.457 |
| CCUCAUCUACAAGUGUGGUTT against Eef1a2 | inactive: -0.622 |
| GGUUCAAGCCAUCUUCAAATT against Olfr1325 | inactive: -0.876 |
| GGUGACAUGGAUGUAGCAATT against Fcsk | inactive: 1.18 |
| GGGAAUUCUUCCCACCUCUTT against Pramel7 | inactive: -1.1 |
| CCUUCCAUCUUUGUCUACCTT against Olfr1181 | inactive: -0.39 |
| CUUCUUCUAGCCUACCUCATT against Olfr1344 | inactive: -0.388 |

Some of the entries so far, tab-delimited:
Sequence	z-score
GGACAACUUCACCUUGAUUTT against Dpysl2	inactive: 0.643
GGAACUCAGUCAGGACCAATT against Hnf4aos	inactive: 0.954
GGUUCUAGACAAUUACCUGTT against Clic1	active: 2.43
GGAUCAUUUACAUUCAUACTT against Alg12	active: -2.6
GCCCACGUAUUUGUCUGCUTT against Sprn	active: -2.58

(cont.)

| Sequence | z-score |
| --- | --- |
| CAGUUUUUGGUCUCUAUCUTT against Olfr113 | active: 2.27 |
| GGCCUAAGAUCAACUGACATT against Prl8a2 | inactive: 0.373 |
| GCAACACCUACGUUUUUGUTT against Txnl1 | inactive: -0.923 |
| GGAAGAUGUCUCCUAUGAGTT against Hebp1 | active: -2.42 |
| GCAAGAGGGUUUGUUCCUUTT against Sec11a | inactive: 0.965 |
| CCGAUAAUAUCAAUGGAAATT against Med24 | inactive: 0.744 |
| GGAAUCCAAGAAGCCACCATT against Ghrl | inactive: 0.341 |
| CCAAGGGUAGUAUUUUAAATT against Nufip1 | inactive: 0.358 |
| GGAACAGCCUAUGUGGUCUTT against Sf3b6 | active: -2.17 |
| GGUCCAAUGGAUUUUGUUUTT against Pxdc1 | active: 2.06 |
| GGAGGAGGUGGAAUUCAUUTT against Dnajb6 | inactive: -0.299 |
| CCCACUGUGAAGAGAGGCATT against Xlr3c | inactive: -1.41 |
| GGGUCUGCUGGUUUAUUUUTT against Olfr720 | inactive: 0.99 |
| GACAAGAUGCACUUCGAAUTT against Uchl3 | inactive: 0.741 |
| GGAUUUUUGGCUUCAUACUTT against Dcbld2 | inactive: 0.0618 |
| GGACAGUUGUGUUUCUUCUTT against Senp6 | inactive: 1.09 |
| GCUUUCUACUAAGCCUGCUTT against Gpr149 | inactive: 0.633 |
| CGGAAAUGUAAGUACUUUATT against Taf13 | active: 2.25 |
| GUAGUAACCAGAUCUUAUATT against Vmn1r29 | inactive: 0.496 |
| GGAGAAGUUGUUCAGGGAATT against Brms1 | inactive: -0.0362 |
| GGCACGAGGCAGAAUUUUATT against Kctd3 | inactive: 0.696 |
| GGAGAUCCAUAUCAAUGGGTT against Pgghg | inactive: 0.202 |

| Sequence | z-score |
| --- | --- |
| GCCUGUUCUAUGUUACUGGTT against Olfr320 | inactive: -1.99 |
| CCGGAGCUUUAUUGACACGTT against Rbm19 | inactive: 1.15 |
| GGAUUCUUUCAGGGUCUAATT against Olfr658 | inactive: -0.738 |
| CCCAGCGCACUUACAUGUCTT against Gpaa1 | inactive: 0.558 |
| GGAGCCUUACUGGAGAUUUTT against Hacd2 | inactive: -0.394 |
| GGUUUGCUUUCAUGACUAUTT against Cyp3a41a | inactive: -0.914 |
| GGUCCAUACAAGUGUUUGATT against Camk2b | inactive: -0.15 |
| GCCCAAGACGAAAAGAUACTT against Mrpl9 | inactive: 0.662 |
| GGAAGAAUGGAAGAAGAAATT against Clec1a | inactive: -0.596 |
| GGCAAUGUGCCCAAUAUCATT against Rfc2 | inactive: -1.61 |
| GCGUGGGAGACAAAUGAAATT against Sstr5 | inactive: -0.053 |
| GGUGAAGAAAGCACUAGUUTT against Olfr979 | inactive: -0.873 |
| GGAAAGAAUCCACUUGCAUTT against Xkr5 | inactive: -1.35 |
| GGUGCUGAAGCUACGCUAUTT against Wnt9b | inactive: -0.918 |
| GGGCCAGAGUCAGAAAAGGTT against Ebp | inactive: 1.98 |
| GGCGUGAAGAAUUUGUCAATT against Prc1 | inactive: 0.878 |
| GGAGAAGCAUAAAUUUGAGTT against Nlrc3 | inactive: 0.176 |
| CGACUUGGAACUCACUGGUTT against Stfa2l1 | inactive: -0.178 |
| CCUCUUAUUCAGAAUGUCCTT against Bnc2 | inactive: 0.451 |
